Measured values reported in paper doi:10.1101/2021.10.13.464316 (bioRxiv, 2021).
These are yes or no findings as the source states them, for the method shown. For some of these results: Binding seen in cells or lysates may run through a third protein. Some binding calls cover weakened binding; strength is not graded here. Where a sequence is shown, tags or fusion partners need not be part of it.

Chains of the proteins cited; added tags and fusions are not shown. Lines headed by an entry give the natural chain unless they say otherwise; changes in a name come on top. A line that says so, or that is headed by a name, gives the form on record, which may keep a tag or linker. Residues count along the entry.
UniProt O22476, residues 814-1196: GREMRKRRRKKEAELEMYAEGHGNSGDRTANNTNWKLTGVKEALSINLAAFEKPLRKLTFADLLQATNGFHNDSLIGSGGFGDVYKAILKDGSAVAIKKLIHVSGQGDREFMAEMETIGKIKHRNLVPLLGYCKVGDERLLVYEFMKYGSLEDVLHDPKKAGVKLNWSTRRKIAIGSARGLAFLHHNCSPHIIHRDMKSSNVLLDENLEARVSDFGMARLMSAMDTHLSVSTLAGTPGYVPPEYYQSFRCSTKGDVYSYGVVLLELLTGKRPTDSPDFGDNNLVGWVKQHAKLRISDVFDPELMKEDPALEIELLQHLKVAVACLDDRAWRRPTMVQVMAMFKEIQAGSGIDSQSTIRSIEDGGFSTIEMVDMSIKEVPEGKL
UniProt Q9FL28, residues 870-1155: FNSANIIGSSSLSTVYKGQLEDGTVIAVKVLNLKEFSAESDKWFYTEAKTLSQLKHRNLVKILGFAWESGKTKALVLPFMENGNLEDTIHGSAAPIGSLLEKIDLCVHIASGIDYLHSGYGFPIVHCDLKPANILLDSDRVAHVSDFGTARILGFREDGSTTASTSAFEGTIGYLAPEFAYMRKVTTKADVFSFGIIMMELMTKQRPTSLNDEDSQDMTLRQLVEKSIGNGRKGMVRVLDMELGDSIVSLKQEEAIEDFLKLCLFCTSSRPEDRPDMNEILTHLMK
UniProt Q9SCZ4: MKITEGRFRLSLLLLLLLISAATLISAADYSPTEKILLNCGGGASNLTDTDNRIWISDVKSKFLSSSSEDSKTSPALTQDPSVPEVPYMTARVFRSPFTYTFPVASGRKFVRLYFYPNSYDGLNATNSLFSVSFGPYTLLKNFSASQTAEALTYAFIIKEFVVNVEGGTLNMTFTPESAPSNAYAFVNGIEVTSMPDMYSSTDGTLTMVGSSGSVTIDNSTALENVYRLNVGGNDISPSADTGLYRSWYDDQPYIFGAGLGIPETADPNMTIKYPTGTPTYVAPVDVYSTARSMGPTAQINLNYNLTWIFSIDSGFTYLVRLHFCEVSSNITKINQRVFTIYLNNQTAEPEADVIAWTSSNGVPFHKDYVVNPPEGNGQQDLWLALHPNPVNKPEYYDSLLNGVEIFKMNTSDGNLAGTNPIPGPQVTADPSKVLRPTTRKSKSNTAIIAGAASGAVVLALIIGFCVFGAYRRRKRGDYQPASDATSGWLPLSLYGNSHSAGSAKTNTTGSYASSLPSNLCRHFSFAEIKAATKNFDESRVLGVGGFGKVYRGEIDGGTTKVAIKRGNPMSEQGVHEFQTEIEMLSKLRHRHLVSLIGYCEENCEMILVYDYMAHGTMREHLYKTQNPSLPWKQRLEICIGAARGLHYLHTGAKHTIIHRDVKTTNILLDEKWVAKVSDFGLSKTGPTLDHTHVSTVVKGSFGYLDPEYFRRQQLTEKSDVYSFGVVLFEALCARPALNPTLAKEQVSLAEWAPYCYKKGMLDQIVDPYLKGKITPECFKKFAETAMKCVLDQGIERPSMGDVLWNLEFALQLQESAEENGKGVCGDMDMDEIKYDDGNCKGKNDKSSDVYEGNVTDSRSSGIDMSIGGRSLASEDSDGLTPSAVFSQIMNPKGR
FER–nVenus: residues 28-895 of Q9SCZ4
cytoplasmic domain of FERONIA fused to the GAL4 DNA-binding domain (BD-FER-CD): residues 469-895 of Q9SCZ4

B1: AD-CAR9 (protein, UniProt Q9S7J9 1-185)
chain: MEDKPLGILRVHVKRGINLAIRDATTSDPYVVITLANQKLKTRVINNNCNPVWNEQLTLSIKDVNDPIRLTVFDKDRFSGDDKMGDAEIDFRPFLEAHQMELDFQKLPNGCAIKRIRPGRTNCLAEESSITWSNGKIMQEMILRLKNVECGEVELMLEWTDGPGCKGLGREGSKKTPWMPTKRLD
B2: CAR1–cCFP (protein, UniProt Q9FHP6 1-168)
chain: MENLVGLLRIHVKRGVNLAIRDISSSDPYIVVHCGKQKLKTRVVKHSVNPEWNDDLTLSVTDPNLPIKLTVYDYDLLSADDKMGEAEFHIGPFIEAIKFAHQLGPGLPNGTIIKKIEPSRKNCLSESSHIVLNQGKIVQNMFLRLQHVECGEVELQLEWIDVPGSRGI
B3: CAR10–cCFP (protein, UniProt Q9ZVF1 1-180)
chain: MDQKPLGLLTIHVKRGINLAIRDHRSSDPYIVLNVADQTLKTRVVKKNCNPVWNEEMTVAIKDPNVPIRLTVFDWDKFTGDDKMGDANIDIQPYLEALKMGMELLRLPNGCAIKRVQPSRHNCLSDESSIVWNNGKITQDLILRLNNVECGEIEIMLEWHEGAGCRGITSSSKGGGSSST
B4: CAR9–cCFP (protein, UniProt Q9S7J9 1-185)
chain: B1 chain
B5: CAR6–cCFP (protein, UniProt Q9S764 1-174)
chain: MEKTEEEVEMKELVGLVRILVKRGIDLARRDALSSDPFVVITMGPQKLKSFTVKNNCNPEWNEELTLAIEDPNEPVKLMVYDKDTFTADDKMGDAQIDMKPFLDVHKLGLKELPHGKELKRIVPTRDNCLSEDSIIVSDNGKIVQDMILLLKNVECGKVEIQLEWLKNPGGSGL
B6: CAR4–cCFP (protein, UniProt Q9LVH4 1-177)
chain: MTTACPARTSSLMDDLLGLLRIRIKRGVNLAVRDISSSDPYVVVKMGKQKLKTRVINKDVNPEWNEDLTLSVTDSNLTVLLTVYDHDMFSKDDKMGDAEFEIKPYIEALRMQLDGLPSGTIVTTVKPSRRNCLAEESRVTWVDGKLVQDLVLRLRHVECGEVEAQLQWIDLPGSKGL
B7: CAR5–cCFP (protein, UniProt Q9LP65 1-200)
chain: MIVSFLYFSSLFPTSLRKINLVAGEKHKDRRMKPSLMDSLLGLLRIRIKRGVNLAVRDLNSSDPYVVVKMAKQKLKTRVIYKNVNPEWNEDLTLSVSDPNLTVLLTVYDYDTFTKDDKMGDAEFGIKPFVNALKMHLHDLPSGTIVTTVQPSRDNCLAEESRVIWSDGKLVQDIVLRLRHVECGEVEAQLQWIDLPGKGL
B8: AD-CAR1 (protein, UniProt Q9FHP6 1-168)
chain: B2 chain
B9: AD-CAR3 (protein, UniProt Q9C6B7 1-168)
chain: MSLMDNLLGILRVRVQRGVNLAVRDVSSSDPYVVLKLGRQKLKTKVVKQNVNPQWQEDLSFTVTDPNLPLTLIVYDHDFFSKDDKMGDAEIDLKPYIEALRMELSGLPDGTIISTIGPSRGNCLAEESYIRWINDRIVQHICLRLRNVERGEVEIELQWIDLPGSKGL
B10: AD-CAR7 (protein, UniProt Q9SSL1 1-165)
chain: MEELVGLLRIRVKRGINLAQRDTLSSDPFVVITMGSQKLKTRVVENNCNPEWNEELTLALRHPDEPVNLIVYDKDTFTSHDKMGDAKIDIKPFLEVHKMGLQELPDGTEIKRVVPNRENCLAEASSIVSNNGKIVQNMILLLRNVECGEVEIQLEWIDIPGSRGL
B11: AD-CAR2 (protein, UniProt Q9C8Y2 1-174)
chain: MENMLGLLRLHVIRGVNLAIRDSQSSDPYVIVRMGKQKLRTRVMKKNLNTEWNEDLTLSVTDPTLPVKIMVYDRDRFSRDDKMGDAIFHIDPFLEAIRIQNQLGGLPEGTVIMKIQASRQNCLSEESKIVWHKGKIVQNMFLKLQNVERGEIELQLEWIDVSGALTDDAEDVAF
B12: AD-CAR10 (protein, UniProt Q9ZVF1 1-180)
chain: B3 chain
B13: CAR9 (prey found in the yeast two-hybrid screen) (protein, UniProt Q9S7J9 1-185)
chain: B1 chain
B14: AD-CAR6 (protein, UniProt Q9S764 1-174)
chain: B5 chain
B15: AD-CAR4 (protein, UniProt Q9LVH4 1-177)
chain: B6 chain
B16: AD-CAR5 (protein, UniProt Q9LP65 1-200)
chain: B7 chain

molecular target: cytoplasmic domain of BRI1 fused to the GAL4 DNA-binding domain (Arabidopsis thaliana) (UniProt O22476); test: two-hybrid

Row | binding | Binder
1 | no binding | B1

molecular target: cytoplasmic domain of FLS2 fused to the GAL4 DNA-binding domain (Arabidopsis thaliana) (UniProt Q9FL28); test: two-hybrid

Row | binding | Binder
2 | no binding | B1

molecular target: cytoplasmic domain of FERONIA fused to the GAL4 DNA-binding domain (BD-FER-CD) (Arabidopsis thaliana) (UniProt Q9SCZ4); test: two-hybrid

Row | binding | Binder
3 | binds | B1

molecular target: FER–nVenus (Arabidopsis thaliana) (UniProt Q9SCZ4); test: split reporter

Row | binding | Binder
4 | binds | B2
5 | binds | B3
6 | binds | B4
7 | binds | B5
8 | binds | B6
9 | binds | B7

molecular target: cytoplasmic domain of FERONIA fused to the GAL4 DNA-binding domain (BD-FER-CD) (Arabidopsis thaliana) (UniProt Q9SCZ4); test: two-hybrid; remark: another data set of the same source

Row | binding | Binder
10 | binds | B8
11 | no binding | B9
12 | no binding | B10
13 | no binding | B11
14 | binds | B12
15 | binds | B13
16 | binds | B1
17 | binds | B14
18 | binds | B15
19 | binds | B16
